Reference: PubChem BioAssay AID504786 (Drosophila RNAi Screening Center, 2011)
In all, the deposit lists about 21,000 reagents; this is an unselected part of those that have a named target and a result. 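Primary screen; positive scores mean lost reporter signal, so the sign may be inverted from the usual convention.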 A plus sign joins genes that one reagent is predicted to hit. Further read-outs or replicates are left out here.

Screen: 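Fly genes required for HIF-dependent transcription when hypoxia is mimicked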 (primary screen)
Cells: Drosophila S2 cells with a stable HIF luciferase reporter
Knock-down reagent: long dsRNA against Drosophila genes, about 0.2 µg dsRNA per well of a 384-well plate
Timing: three days of knock-down, then 20 h of DFO before reading
Challenge: desferrioxamine (DFO) at 100 µM, an iron chelator that mimics hypoxia, for 20 h
Measurement: 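HIF reporter luminescence in cells given 100 µM DFO for 20 h, using the mouse ldh-a hypoxia-response element, scored as per-plate z-scores; higher means greater loss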
Reading the numbers: z-score: higher = stronger loss of HIF reporter signal

hep [DRSC19839] — z-score, replicate 1: -0.3
hep [DRSC20337] — z-score, replicate 1: -0.3
Aps [DRSC10629] — z-score, replicate 1: -0.3
saturn [DRSC09303] — z-score, replicate 1: -0.1
CtsB [DRSC19361] — z-score, replicate 1: -0.1
LSm3 [DRSC15920] — z-score, replicate 1: -0.3
TkR86C [DRSC16880] — z-score, replicate 1: -0.2
Ect3 [DRSC15462] — z-score, replicate 1: -0.3
CG40191 [DRSC21041] — z-score, replicate 1: 0.4
Reph [DRSC00634] — z-score, replicate 1: -0.4
Mdr65 [DRSC11220] — z-score, replicate 1: -0.2
PIG-N [DRSC06837] — z-score, replicate 1: 0
CG32148 [DRSC09338] — z-score, replicate 1: -0.1
Sirup [DRSC03031] — z-score, replicate 1: -0.4
TyrR [DRSC16242] — z-score, replicate 1: 0.4
KP78a + KP78b [DRSC16721] — z-score, replicate 1: -0.3
KP78a + KP78b [DRSC16722] — z-score, replicate 1: -0.3
Use1 [DRSC10180] — z-score, replicate 1: -0.4
Brd [DRSC09685] — z-score, replicate 1: -0.3
CG32271 [DRSC08198] — z-score, replicate 1: -0.2
CG9839 [DRSC16574] — z-score, replicate 1: -0.4
Spn55B [DRSC07694] — z-score, replicate 1: -0.4
timeout [DRSC12950] — z-score, replicate 1: -0.1
timeout [DRSC17078] — z-score, replicate 1: 0.4
timeout [DRSC17079] — z-score, replicate 1: -0.1
timeout [DRSC17080] — z-score, replicate 1: -0.1
timeout [DRSC17081] — z-score, replicate 1: -0.2
Pep [DRSC11252] — z-score, replicate 1: 0.4
pita [DRSC04006] — z-score, replicate 1: -0.1
pita [DRSC04435] — z-score, replicate 1: -0.4
CG31388 [DRSC15254] — z-score, replicate 1: -0.1
CG14511 [DRSC14863] — z-score, replicate 1: 0.2
CG15657 [DRSC04248] — z-score, replicate 1: -0.2
Ugt37C2 [DRSC02247] — z-score, replicate 1: -0.2
CG1663 [DRSC06613] — z-score, replicate 1: -0.1
MRG15 [DRSC16731] — z-score, replicate 1: -0.3
AttB [DRSC06734] — z-score, replicate 1: -0.3
CG6472 [DRSC06989] — z-score, replicate 1: -0.2
CG11127 [DRSC06043] — z-score, replicate 1: 0
CG8765 [DRSC11041] — z-score, replicate 1: 0.4
RYa-R [DRSC16757] — z-score, replicate 1: -0.4
alpha-Est10 [DRSC12613] — z-score, replicate 1: -0.1
mfrn [DRSC15687] — z-score, replicate 1: 1
Muc91C [DRSC16297] — z-score, replicate 1: -1.3
His2Av [DRSC16702] — z-score, replicate 1: 0
Scox [DRSC03117] — z-score, replicate 1: 2.8
Prosalpha3 [DRSC04644] — z-score, replicate 1: 3.3
Yp3 [DRSC20302] — z-score, replicate 1: -0.2
CG12398 [DRSC19454] — z-score, replicate 1: -0.2
Acp1 [DRSC01854] — z-score, replicate 1: -0.1
Arp3 [DRSC09669] — z-score, replicate 1: 0.9

Look-ups from the entries so far.
Under “z-score, replicate 1”, alpha-Est10 [DRSC12613] has -0.1
For “z-score, replicate 1”, CG32271 [DRSC08198] has -0.2
timeout [DRSC17078], z-score, replicate 1 → 0.4
Result of Scox [DRSC03117] in “z-score, replicate 1”: 2.8
KP78a + KP78b [DRSC16721], z-score, replicate 1 = -0.3
Aps [DRSC10629], z-score, replicate 1: -0.3
